Test results taken from paper PMC6606597.
These are yes or no findings as the source states them, for the method shown. In cells and extracts the contact can be indirect. Some binding calls cover weakened binding; strength is not graded here.

Chains of the proteins cited; added tags and fusions are not shown.
UniProt Q9WVL2: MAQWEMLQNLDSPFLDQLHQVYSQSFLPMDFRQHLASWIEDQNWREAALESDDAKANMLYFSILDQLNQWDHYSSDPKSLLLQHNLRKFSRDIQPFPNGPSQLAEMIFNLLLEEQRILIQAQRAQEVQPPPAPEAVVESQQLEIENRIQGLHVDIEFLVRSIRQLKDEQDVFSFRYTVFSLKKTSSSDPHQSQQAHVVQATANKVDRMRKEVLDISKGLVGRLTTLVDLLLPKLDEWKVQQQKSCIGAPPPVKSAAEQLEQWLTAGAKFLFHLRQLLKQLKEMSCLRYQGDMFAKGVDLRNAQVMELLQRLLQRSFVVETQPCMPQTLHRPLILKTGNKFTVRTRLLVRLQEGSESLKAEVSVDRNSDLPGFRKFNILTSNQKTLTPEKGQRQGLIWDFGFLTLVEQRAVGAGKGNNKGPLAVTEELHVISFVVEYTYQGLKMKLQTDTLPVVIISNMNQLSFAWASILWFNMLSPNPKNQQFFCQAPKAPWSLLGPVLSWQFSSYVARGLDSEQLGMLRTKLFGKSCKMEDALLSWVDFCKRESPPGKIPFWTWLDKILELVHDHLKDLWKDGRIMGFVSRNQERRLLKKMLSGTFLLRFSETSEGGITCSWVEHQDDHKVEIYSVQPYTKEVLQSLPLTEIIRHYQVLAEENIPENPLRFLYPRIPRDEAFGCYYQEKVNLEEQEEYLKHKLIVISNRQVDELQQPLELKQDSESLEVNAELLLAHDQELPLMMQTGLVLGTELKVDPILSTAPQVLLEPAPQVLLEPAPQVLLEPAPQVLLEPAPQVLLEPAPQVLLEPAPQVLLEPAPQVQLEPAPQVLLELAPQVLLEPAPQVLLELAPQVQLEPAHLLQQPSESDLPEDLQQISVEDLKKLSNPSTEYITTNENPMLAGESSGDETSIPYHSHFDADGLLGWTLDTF

Target: STAT2 (signal transducer and activator of transcription 2), endogenous (mouse (endogenous in BMDM and Raw 264.7)) (UniProt Q9WVL2)
Assay: co-IP; endogenous proteins of mouse BMDM, resting or treated 1.5 h with IFN-β; lysis in 10 mM Tris-HCl pH 7.5, 50 mM NaCl, 1% Triton X-100; IP with antibodies to STAT1, STAT2, IRF9 or IgG control, protein G beads, western blot

B1: interferon regulatory factor 9 (IRF9), endogenous (protein, UniProt Q61179 1-399)
chain: MASGKVRCTRKLRSWIVEQVESGHFPGVCWDDAAKTMFRIPWKHAGKQDFREDQDAAIFKAWALFKEKHKDGDIGHPAVWKTRLRCALNKSSEFEEVPERGRMDVAEPYKVYRILPAGTLPNQPRNQKSPCKRSISCVSPEREENMENGRTNGVVNHSDSGSNIGGGGNGSNRSDSNSNCNSELEEGAGTTEATIREDPVFLEHQLPLNSDYSLLLTFIYGGRVVGKTQVHSLDCRLVAERSDSESSMEQVEFPKPDPLEPTQHLLNQLDRGVLVASNSRGLFVQRLCPIPISWNAPEAPPGPGPHLLPSNKCVELFKTTYFCRDLAQYFQGQGPPPKFQATLHFWEESPGSSHSQENLITVQMEQAFARHLLEKIPEEEKAALFLLQHTEQSPSALGH
binding: binds
